{"source": "PubChem BioAssay AID1508588 (Peter MacCallum Cancer Centre, 2020)", "test": "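Which gene losses make BRAF-mutant melanoma cells more responsive to vemurafenib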 (primary screen)", "cell system": "human WM266.4 melanoma cells (BRAF V600 mutant)", "reagents": "siRNA pool against human genes, 40 nM", "time to read-out": "96 h from transfection to read-out", "treatment": "vemurafenib 300 nM (about IC25), added 48 h after transfection, for 48 h; comparison arm got DMSO vehicle only", "measurement": "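Ratios to non-targeting siRNA for cell gain, counted as DAPI nuclei after minus before drug and averaged over two replicates, and for absorbance-read medium lactate per cell; both binned into fold-change classes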", "scale": "cell gain with vemurafenib: higher = more cell gain than with non-targeting siRNA; lactate per cell with vemurafenib: higher = more lactate made per cell", "rule for the call": "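a knock-down counts as enhancing when its fold-change classes with vehicle and with vemurafenib, taken together, show a stronger drug effect on cell gain or lactate per cell; exact class pairs not stated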", "meaning of the calls": "active = enhances vemurafenib effect; inactive = no enhancement seen", "note": "The deposit covers about 18,000 reagents; below is a random part of them. Over the whole deposit, 790 (4.4%) are marked active. 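Calls rest on a combination of fold-change classes in drug and vehicle arms, not all shown here.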 Unmarked entries are inactive."}
{"gene symbol": "FLAD1", "cell gain with vemurafenib": 0.6, "lactate per cell with vemurafenib": 0.98}
{"gene symbol": "NXT2", "cell gain with vemurafenib": 0.59, "lactate per cell with vemurafenib": 1.37}
{"gene symbol": "UTP20", "cell gain with vemurafenib": 0.41, "lactate per cell with vemurafenib": 0.71}
{"gene symbol": "CNPPD1", "cell gain with vemurafenib": 0.68, "lactate per cell with vemurafenib": 0.76}
{"gene symbol": "STAG3L2", "cell gain with vemurafenib": 0.74, "lactate per cell with vemurafenib": 1.08}
{"gene symbol": "SLC12A1", "cell gain with vemurafenib": 0.2, "lactate per cell with vemurafenib": 0.92}
{"gene symbol": "EVA1A", "cell gain with vemurafenib": 0.47, "lactate per cell with vemurafenib": 0.99}
{"gene symbol": "PXN", "cell gain with vemurafenib": 0.59, "lactate per cell with vemurafenib": 0.55}
{"gene symbol": "DHX34", "cell gain with vemurafenib": 1.06, "lactate per cell with vemurafenib": 0.66}
{"gene symbol": "UNC119B", "cell gain with vemurafenib": 0.77, "lactate per cell with vemurafenib": 0.88}
{"gene symbol": "HORMAD1", "cell gain with vemurafenib": 0.93, "lactate per cell with vemurafenib": 0.86}
{"gene symbol": "CBX4", "cell gain with vemurafenib": 0.2, "lactate per cell with vemurafenib": 0.79}
{"gene symbol": "DYNLL1", "cell gain with vemurafenib": 0.62, "lactate per cell with vemurafenib": 1.14}
{"gene symbol": "MEIS3", "cell gain with vemurafenib": 1.52, "lactate per cell with vemurafenib": 0.36}
{"gene symbol": "UBE3D", "cell gain with vemurafenib": 0.17, "lactate per cell with vemurafenib": 2.4}
{"gene symbol": "ELOB", "cell gain with vemurafenib": 0.19, "lactate per cell with vemurafenib": 2.69}
{"gene symbol": "GPSM3", "cell gain with vemurafenib": 1.18, "lactate per cell with vemurafenib": 0.94}
{"gene symbol": "ATXN2", "cell gain with vemurafenib": 0.95, "lactate per cell with vemurafenib": 0.84}
{"gene symbol": "SYNJ1", "cell gain with vemurafenib": 0.81, "lactate per cell with vemurafenib": 0.58}
{"gene symbol": "LYZL1", "cell gain with vemurafenib": "0.48 (active)", "lactate per cell with vemurafenib": 0.47}
{"gene symbol": "CFHR1", "cell gain with vemurafenib": "0.47 (active)", "lactate per cell with vemurafenib": 0.6}
{"gene symbol": "PPP1R35", "cell gain with vemurafenib": 0.62, "lactate per cell with vemurafenib": 0.94}
{"gene symbol": "MYO7B", "cell gain with vemurafenib": 0.97, "lactate per cell with vemurafenib": 0.74}
{"gene symbol": "ABCC2", "cell gain with vemurafenib": 0.67, "lactate per cell with vemurafenib": 0.66}
